Our source for the binding values is article PMC10008730.

Amino acid sequences for entries named in this document (tags omitted).
UniProt P06733: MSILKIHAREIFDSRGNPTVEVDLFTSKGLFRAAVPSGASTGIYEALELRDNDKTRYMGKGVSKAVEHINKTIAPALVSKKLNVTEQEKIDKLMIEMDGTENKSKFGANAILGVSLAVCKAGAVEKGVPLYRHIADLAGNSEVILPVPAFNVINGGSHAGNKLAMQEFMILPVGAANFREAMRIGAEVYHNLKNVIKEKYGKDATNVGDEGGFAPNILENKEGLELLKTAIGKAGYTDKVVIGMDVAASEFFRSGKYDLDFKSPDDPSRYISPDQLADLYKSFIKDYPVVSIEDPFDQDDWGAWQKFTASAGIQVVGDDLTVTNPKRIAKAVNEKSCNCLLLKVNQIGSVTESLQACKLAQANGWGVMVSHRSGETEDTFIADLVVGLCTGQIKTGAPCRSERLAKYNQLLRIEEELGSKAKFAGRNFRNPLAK
UniProt P26038: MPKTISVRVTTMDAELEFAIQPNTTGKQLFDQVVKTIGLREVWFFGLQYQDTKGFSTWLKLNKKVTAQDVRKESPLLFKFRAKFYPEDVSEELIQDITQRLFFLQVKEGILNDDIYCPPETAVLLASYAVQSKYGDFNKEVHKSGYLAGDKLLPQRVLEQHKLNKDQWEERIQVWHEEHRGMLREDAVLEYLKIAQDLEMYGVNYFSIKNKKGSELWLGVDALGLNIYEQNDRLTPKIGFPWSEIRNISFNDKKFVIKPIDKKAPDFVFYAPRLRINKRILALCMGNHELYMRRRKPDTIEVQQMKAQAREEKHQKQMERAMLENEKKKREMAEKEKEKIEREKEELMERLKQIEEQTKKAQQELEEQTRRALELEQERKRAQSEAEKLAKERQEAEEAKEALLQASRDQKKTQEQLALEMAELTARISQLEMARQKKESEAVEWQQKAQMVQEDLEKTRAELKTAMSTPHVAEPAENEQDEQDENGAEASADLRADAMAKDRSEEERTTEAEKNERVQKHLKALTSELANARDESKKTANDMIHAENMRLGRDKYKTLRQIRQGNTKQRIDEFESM

Assay [1] has as its target Enolase 1 (ENO1) (human (endogenous in MDA-MB-231)) (UniProt P06733). The assay is described as follows: co-IP; MDA-MB-231 cell lysates; reciprocal; samples pretreated with protein A agarose beads and rabbit IgG, overnight immunoprecipitation with beads conjugated with anti-ENO1, anti-MSN or anti-Mtdh antibodies; washed three times with PBS; Western blotting.
Assay [2] deals with Moesin (MSN) (human (endogenous in MDA-MB-231)) (UniProt P26038). Described as above.

These are yes or no findings as the source states them, for the method shown. Binding seen in cells or lysates may run through a third protein. Some binding calls cover weakened binding; strength is not graded here.

B1: Metadherin (Mtdh) (protein, UniProt Q86UE4 1-582)
chain: MAARSWQDELAQQAEEGSARLREMLSVGLGFLRTELGLDLGLEPKRYPGWVILVGTGALGLLLLFLLGYGWAAACAGARKKRRSPPRKREEAAAVPAAAPDDLALLKNLRSEEQKKKNRKKLSEKPKPNGRTVEVAEGEAVRTPQSVTAKQPPEIDKKNEKSKKNKKKSKSDAKAVQNSSRHDGKEVDEGAWETKISHREKRQQRKRDKVLTDSGSLDSTIPGIENTITVTTEQLTTASFPVGSKKNKGDSHLNVQVSNFKSGKGDSTLQVSSGLNENLTVNGGGWNEKSVKLSSQISAGEEKWNSVSPASAGKRKTEPSAWSQDTGDANTNGKDWGRSWSDRSIFSGIGSTAEPVSQSTTSDYQWDVSRNQPYIDDEWSGLNGLSSADPNSDWNAPAEEWGNWVDEERASLLKSQEPIPDDQKVSDDDKEKGEGALPTGKSKKKKKKKKKQGEDNSTAQDTEELEKEIREDLPVNTSKTRPKQEKAFSLKTISTSDPAEVLVKNSQPIKTLPPATSTEPSVILSKSDSDKSSSQVPPILQETDKSKSNTKQNSVPPSQTKSETSWESPKQIKKKKKARRET
Regarding B1, the binding entry in assay [1] and in assay [2] was “binds” each time.
